The supplement of paper PMC10849652
The list shows a part of the results.

The chains behind the UniProt entries cited, without tags or fusion partners. Where a name states a change or a piece, a line headed by the entry shows the natural chain unless it says otherwise.
UniProt Q8WYH8, whole entry, looked up: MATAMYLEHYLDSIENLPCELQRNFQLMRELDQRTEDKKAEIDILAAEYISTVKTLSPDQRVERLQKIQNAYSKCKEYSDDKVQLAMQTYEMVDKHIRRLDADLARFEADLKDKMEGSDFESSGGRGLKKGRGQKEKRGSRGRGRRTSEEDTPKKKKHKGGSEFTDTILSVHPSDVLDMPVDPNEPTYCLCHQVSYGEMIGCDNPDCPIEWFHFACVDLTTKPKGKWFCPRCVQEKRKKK
UniProt Q9HBG6: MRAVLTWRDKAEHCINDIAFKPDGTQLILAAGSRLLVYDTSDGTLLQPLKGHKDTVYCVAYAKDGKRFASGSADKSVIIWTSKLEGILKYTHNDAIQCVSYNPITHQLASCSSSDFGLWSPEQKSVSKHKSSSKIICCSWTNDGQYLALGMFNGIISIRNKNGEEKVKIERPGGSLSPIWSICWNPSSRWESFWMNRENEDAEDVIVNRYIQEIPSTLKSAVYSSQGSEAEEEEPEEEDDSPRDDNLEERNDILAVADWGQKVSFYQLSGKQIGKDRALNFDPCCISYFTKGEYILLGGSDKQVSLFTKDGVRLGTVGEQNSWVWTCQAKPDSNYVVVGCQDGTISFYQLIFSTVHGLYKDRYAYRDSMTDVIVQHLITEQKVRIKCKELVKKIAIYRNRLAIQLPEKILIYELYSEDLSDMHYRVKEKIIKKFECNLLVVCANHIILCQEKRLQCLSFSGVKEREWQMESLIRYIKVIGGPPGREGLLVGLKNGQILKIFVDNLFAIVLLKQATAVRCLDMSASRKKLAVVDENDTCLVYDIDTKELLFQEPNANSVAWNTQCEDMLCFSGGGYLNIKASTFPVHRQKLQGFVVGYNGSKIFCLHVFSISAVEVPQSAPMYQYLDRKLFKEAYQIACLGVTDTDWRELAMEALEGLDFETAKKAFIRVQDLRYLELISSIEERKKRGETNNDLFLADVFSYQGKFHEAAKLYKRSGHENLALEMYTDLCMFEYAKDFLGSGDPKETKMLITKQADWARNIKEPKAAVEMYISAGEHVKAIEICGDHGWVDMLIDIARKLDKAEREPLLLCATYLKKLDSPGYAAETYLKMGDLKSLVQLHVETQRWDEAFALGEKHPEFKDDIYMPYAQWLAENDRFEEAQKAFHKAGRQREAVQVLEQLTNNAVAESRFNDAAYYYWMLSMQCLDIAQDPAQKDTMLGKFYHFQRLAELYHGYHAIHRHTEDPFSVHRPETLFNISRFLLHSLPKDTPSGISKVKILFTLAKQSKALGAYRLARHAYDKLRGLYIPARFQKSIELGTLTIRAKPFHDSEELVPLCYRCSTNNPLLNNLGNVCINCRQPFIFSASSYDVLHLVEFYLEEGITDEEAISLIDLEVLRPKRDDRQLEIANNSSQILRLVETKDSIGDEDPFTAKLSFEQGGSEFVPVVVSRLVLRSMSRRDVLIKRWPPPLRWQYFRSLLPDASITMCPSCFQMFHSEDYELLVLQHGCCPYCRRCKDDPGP
UniProt P38935: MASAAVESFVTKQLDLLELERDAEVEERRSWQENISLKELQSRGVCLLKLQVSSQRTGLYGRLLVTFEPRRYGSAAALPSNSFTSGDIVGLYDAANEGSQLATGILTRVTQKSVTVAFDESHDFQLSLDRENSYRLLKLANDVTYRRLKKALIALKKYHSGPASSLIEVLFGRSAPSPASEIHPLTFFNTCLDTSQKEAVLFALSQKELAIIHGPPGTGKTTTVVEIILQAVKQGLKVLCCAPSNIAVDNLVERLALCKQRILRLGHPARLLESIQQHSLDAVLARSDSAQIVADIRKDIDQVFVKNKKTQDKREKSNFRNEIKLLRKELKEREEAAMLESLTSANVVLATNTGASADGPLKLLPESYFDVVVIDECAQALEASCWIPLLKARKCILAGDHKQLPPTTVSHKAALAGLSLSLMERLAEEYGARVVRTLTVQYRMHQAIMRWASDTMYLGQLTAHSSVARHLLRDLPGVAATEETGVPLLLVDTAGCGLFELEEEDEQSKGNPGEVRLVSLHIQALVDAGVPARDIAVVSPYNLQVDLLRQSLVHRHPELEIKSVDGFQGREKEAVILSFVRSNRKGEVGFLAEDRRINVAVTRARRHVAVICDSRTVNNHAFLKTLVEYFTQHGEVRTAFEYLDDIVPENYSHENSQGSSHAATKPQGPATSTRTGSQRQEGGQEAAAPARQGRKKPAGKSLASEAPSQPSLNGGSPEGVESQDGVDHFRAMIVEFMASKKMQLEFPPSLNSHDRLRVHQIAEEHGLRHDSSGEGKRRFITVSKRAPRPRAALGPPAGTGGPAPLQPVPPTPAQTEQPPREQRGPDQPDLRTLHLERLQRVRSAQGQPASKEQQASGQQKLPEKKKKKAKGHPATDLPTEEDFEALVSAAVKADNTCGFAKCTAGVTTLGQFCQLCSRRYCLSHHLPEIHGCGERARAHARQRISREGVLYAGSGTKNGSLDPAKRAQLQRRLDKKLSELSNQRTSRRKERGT
UniProt O14879: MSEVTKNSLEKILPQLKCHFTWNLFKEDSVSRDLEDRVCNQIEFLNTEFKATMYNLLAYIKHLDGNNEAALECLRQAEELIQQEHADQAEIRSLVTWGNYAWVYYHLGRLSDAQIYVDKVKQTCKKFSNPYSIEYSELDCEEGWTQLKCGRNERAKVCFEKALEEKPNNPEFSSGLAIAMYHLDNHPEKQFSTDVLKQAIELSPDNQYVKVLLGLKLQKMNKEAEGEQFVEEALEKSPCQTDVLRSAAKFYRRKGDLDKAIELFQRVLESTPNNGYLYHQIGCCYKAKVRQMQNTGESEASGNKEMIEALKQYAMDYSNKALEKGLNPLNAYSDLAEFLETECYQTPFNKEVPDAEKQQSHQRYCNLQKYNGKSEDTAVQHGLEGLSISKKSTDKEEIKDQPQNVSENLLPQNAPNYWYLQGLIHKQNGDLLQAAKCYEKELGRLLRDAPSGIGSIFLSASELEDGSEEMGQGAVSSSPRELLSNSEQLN
UniProt Q96FT9: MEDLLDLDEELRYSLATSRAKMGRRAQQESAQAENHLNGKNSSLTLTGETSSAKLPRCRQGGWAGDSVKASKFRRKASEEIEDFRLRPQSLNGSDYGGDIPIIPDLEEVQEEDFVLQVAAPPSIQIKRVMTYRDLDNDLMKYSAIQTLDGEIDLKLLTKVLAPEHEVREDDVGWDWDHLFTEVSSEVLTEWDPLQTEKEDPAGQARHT
UniProt Q9Y366: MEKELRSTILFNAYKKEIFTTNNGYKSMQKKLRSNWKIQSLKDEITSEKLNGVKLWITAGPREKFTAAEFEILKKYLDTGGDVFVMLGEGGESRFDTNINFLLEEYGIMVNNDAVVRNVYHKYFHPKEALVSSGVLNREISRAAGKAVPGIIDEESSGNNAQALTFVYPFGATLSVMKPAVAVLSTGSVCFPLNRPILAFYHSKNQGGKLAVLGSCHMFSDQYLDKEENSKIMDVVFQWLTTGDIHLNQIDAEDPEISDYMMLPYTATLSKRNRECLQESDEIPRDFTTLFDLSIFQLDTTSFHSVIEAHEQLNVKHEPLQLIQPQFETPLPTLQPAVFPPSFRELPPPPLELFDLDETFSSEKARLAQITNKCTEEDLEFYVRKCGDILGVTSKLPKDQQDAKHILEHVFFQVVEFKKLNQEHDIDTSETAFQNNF
UniProt Q9UNL4, whole entry, looked up: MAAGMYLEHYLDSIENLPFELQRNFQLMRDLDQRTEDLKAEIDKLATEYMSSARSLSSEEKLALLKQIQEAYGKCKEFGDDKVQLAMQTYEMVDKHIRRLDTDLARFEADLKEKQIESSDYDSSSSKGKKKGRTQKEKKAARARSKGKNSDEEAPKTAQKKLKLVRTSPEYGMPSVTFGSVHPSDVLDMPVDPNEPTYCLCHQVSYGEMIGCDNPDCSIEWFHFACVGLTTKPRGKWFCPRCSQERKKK
UniProt Q9Y6M1: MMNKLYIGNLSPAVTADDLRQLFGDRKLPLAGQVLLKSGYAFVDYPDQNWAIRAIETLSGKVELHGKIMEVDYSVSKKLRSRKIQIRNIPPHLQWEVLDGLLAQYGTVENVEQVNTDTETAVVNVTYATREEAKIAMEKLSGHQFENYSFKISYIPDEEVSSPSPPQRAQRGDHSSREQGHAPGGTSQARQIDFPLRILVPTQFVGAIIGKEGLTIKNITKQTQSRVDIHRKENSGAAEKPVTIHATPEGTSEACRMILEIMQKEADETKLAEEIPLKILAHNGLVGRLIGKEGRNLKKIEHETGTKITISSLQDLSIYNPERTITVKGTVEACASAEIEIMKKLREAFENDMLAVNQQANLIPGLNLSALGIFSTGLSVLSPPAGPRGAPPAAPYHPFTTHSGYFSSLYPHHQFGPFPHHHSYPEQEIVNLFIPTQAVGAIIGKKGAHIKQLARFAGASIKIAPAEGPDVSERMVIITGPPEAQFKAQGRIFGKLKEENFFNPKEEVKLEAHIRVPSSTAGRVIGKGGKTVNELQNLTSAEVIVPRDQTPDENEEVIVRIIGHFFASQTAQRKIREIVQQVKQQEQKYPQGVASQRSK
UniProt O60725, whole entry, looked up: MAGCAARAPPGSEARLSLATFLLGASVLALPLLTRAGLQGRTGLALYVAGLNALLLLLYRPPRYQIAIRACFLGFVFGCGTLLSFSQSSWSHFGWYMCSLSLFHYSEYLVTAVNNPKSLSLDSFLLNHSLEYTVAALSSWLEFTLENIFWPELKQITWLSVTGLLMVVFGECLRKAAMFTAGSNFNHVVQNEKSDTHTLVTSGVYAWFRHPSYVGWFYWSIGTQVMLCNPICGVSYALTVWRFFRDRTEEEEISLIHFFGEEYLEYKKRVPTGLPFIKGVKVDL
UniProt Q92835: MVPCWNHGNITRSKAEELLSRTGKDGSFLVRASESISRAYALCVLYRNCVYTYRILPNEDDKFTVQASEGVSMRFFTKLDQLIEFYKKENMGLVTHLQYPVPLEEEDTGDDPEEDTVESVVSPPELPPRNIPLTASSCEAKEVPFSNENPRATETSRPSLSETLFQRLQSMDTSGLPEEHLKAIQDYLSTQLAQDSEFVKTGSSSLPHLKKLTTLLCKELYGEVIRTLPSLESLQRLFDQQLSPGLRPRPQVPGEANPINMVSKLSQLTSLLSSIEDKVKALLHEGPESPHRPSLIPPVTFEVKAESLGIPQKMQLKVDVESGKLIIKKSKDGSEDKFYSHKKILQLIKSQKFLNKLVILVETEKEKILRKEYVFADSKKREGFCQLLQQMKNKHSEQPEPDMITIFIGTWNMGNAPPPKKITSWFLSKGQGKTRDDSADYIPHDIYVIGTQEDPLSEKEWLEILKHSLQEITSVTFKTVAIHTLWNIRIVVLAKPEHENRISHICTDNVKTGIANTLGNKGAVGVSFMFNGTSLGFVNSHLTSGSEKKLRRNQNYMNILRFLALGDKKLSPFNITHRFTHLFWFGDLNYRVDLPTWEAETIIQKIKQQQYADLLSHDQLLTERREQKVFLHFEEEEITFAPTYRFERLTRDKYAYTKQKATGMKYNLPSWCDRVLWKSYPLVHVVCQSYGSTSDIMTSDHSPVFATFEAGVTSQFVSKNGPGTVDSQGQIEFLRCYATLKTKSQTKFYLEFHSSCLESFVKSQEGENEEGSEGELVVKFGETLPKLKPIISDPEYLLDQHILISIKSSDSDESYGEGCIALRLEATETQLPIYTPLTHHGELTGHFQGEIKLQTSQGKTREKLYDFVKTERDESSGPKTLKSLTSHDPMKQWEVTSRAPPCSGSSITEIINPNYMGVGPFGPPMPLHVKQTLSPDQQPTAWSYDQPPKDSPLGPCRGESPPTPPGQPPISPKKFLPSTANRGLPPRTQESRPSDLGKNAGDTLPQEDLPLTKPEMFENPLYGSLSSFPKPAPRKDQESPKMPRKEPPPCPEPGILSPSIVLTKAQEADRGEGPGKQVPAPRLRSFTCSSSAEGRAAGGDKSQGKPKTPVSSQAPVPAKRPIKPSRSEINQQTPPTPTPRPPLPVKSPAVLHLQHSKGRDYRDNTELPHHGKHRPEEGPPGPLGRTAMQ
UniProt Q9NRY2: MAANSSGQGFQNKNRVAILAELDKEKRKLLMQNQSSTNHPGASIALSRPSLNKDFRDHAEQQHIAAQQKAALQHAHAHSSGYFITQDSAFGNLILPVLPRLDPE
UniProt Q9H7X7: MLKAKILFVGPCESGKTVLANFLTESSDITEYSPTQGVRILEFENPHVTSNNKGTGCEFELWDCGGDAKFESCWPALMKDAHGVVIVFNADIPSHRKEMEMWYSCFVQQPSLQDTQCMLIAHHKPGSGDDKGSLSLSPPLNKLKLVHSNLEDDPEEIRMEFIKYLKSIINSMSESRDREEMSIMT
UniProt Q9H160: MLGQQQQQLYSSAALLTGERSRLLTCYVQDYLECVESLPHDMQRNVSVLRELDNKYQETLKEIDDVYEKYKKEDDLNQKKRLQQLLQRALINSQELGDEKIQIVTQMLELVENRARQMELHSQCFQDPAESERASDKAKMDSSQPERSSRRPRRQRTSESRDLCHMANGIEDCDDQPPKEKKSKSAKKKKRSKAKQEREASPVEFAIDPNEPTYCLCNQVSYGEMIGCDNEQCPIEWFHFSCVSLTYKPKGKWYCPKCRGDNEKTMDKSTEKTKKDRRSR

Key:
Assay in all cases: log2 fold change, soluble protein after heating vs DMSO (PISA); higher = thermal stabilisation; K562 lysate, 10 uM; active = over 0.2 and 3.5 SD of the protein, either way, in both replicates (recomputed)
Tubastatin A = compound: CN1CCc2c(c3ccccc3n2Cc2ccc(C(=O)NO)cc2)C1 [Tubastatin A]
In short: (§1)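 A 30 min treatment with 10 μM compound was applied to crude K562 extract at 1 mg/mL protein in PBS pH 7.4 with 1 mM MgCl2. Heating for 3 min spanned 48°C-58°C, after which aliquots were pooled, adjusted to 0.5% NP-40 at 4°C and spun at 21,000xg for 90 min. TMTpro 16plex LC-MS/MS of the supernatant, with channel sums equalised, gave values recorded as log-two fold change in thermal stability against solvent controls, from duplicates.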

[1] = compound: CNC(=O)C1=CC=CC=C1NC2=NC(=NC=C2Cl)NC3=C(C=C(C=C3)N4CCOCC4)OC
In short: as §1

[2] = compound: CNc1nc(-c2ccc3c(N)n[nH]c3c2)cc(N2C[C@@H](C(=O)NC3CCCCC3)CC[C@H]2C)n1
In short: as §1

encorafenib = compound: COC(=O)N[C@@H](C)CNc1nccc(-c2cn(C(C)C)nc2-c2cc(Cl)cc(NS(C)(=O)=O)c2F)n1 [encorafenib]
In short: as §1

[3] = compound: COC(=O)[C@H](CCSC)NC(=O)C1=C(C=C(C=C1)NC[C@H](CS)N)C2=CC=CC=C2
In short: as §1

alisertib = compound: COc1cc(Nc2ncc3c(n2)-c2ccc(Cl)cc2C(c2c(F)cccc2OC)=NC3)ccc1C(=O)O [alisertib]
In short: as §1

[4] = compound: COc1cc2nc(-c3cc(F)ccc3O)nc(N[C@@H]3CNC[C@H]3C(C)(C)O)c2cc1OC
In short: as §1

gefitinib = compound: COc1cc2ncnc(Nc3ccc(F)c(Cl)c3)c2cc1OCCCN1CCOCC1 [gefitinib]
In short: as §1

lapatinib = compound: CS(=O)(=O)CCNCc1ccc(-c2ccc3ncnc(Nc4ccc(OCc5cccc(F)c5)c(Cl)c4)c3c2)o1 [lapatinib]
In short: as §1

pictilisib = compound: CS(=O)(=O)N1CCN(Cc2cc3nc(-c4cccc5[nH]ncc45)nc(N4CCOCC4)c3s2)CC1 [pictilisib]
In short: as §1

duvelisib = compound: C[C@H](Nc1ncnc2nc[nH]c12)c1cc2cccc(Cl)c2c(=O)n1-c1ccccc1 [duvelisib]
In short: as §1

tozasertib = compound: Cc1cc(Nc2cc(N3CCN(C)CC3)nc(Sc3ccc(NC(=O)C4CC4)cc3)n2)n[nH]1 [tozasertib]
In short: as §1

bafetinib = compound: Cc1ccc(NC(=O)c2ccc(CN3CC[C@H](N(C)C)C3)c(C(F)(F)F)c2)cc1Nc1nccc(-c2cncnc2)n1 [bafetinib]
In short: as §1

defactinib = compound: CNC(=O)c1ccc(Nc2ncc(C(F)(F)F)c(NCc3nccnc3N(C)S(C)(=O)=O)n2)cc1 [defactinib]
In short: as §1

crizotinib = compound: C[C@@H](Oc1cc(-c2cnn(C3CCNCC3)c2)cnc1N)c1c(Cl)ccc(F)c1Cl [crizotinib]
In short: as §1

doramapimod = compound: Cc1ccc(-n2nc(C(C)(C)C)cc2NC(=O)Nc2ccc(OCCN3CCOCC3)c3ccccc23)cc1 [doramapimod]
In short: as §1

Measured: log2 fold change

ING5 (UniProt Q8WYH8)
inactive: Tubastatin A 0.113 | [1] -0.129 | [2] 0.34 | encorafenib 0.183 | [3] 0.123 | alisertib 0.05 | [4] 0.163 | gefitinib -0.1 | lapatinib -0.026 | pictilisib -0.114 | duvelisib 0.106 | tozasertib -0.11 | bafetinib -0.143

IFT122 isoform 5 (UniProt Q9HBG6)
inactive: Tubastatin A -0.008 | defactinib -0.022 | [2] -0.314 | alisertib -0.065 | gefitinib 0.25 | crizotinib 0.149 | duvelisib -0.257 | doramapimod 0.171

IGHMBP2 (UniProt P38935)
inactive: [1] -0.008 | [2] 0.046 | encorafenib -0.029 | [3] 0.119 | alisertib 0.028 | [4] -0.035 | gefitinib -0.017 | lapatinib 0.251 | pictilisib -0.059 | crizotinib -0.007 | duvelisib -0.004 | tozasertib 0.047 | doramapimod 0.022 | bafetinib 0.007

IFIT3 (UniProt O14879)
inactive: Tubastatin A -0.023 | [1] 0.107 | [2] 0.262 | encorafenib 0.118 | [3] -0.316 | crizotinib 0.006 | duvelisib 0.082 | tozasertib 0.03 | doramapimod -0.01

IFT43 (UniProt Q96FT9)
inactive: Tubastatin A 0.015 | [1] 0.081 | defactinib 0.09 | [2] -0.468 | pictilisib 0.053 | crizotinib -0.173 | duvelisib 0.01 | doramapimod 0.137 | bafetinib -0.01

IFT52 (UniProt Q9Y366)
inactive: [1] 0.253 | alisertib -0.017 | gefitinib 0.138 | crizotinib 0.084 | doramapimod -0.072

Random excerpt: 2 records from the list
IGHMBP2 (UniProt P38935)
inactive: [1] -0.008 | [2] 0.046 | encorafenib -0.029 | [3] 0.119 | alisertib 0.028 | [4] -0.035 | gefitinib -0.017 | lapatinib 0.251 | pictilisib -0.059 | crizotinib -0.007 | duvelisib -0.004 | tozasertib 0.047 | doramapimod 0.022 | bafetinib 0.007

IFT122 isoform 5 (UniProt Q9HBG6)
inactive: Tubastatin A -0.008 | defactinib -0.022 | [2] -0.314 | alisertib -0.065 | gefitinib 0.25 | crizotinib 0.149 | duvelisib -0.257 | doramapimod 0.171

More entries follow:

ING4 (UniProt Q9UNL4)
inactive: [4] 0.143 | lapatinib -0.096 | pictilisib -0.193 | crizotinib 0.014 | doramapimod 0.033 | bafetinib -0.209

IKZF4 (UniProt Q9H2S9)
inactive: Tubastatin A -0.137 | encorafenib 0.131 | [3] 0.089 | alisertib 0.117 | [4] -0.038 | gefitinib -0.069 | lapatinib 0.19 | pictilisib -0.228 | crizotinib 0.021 | tozasertib 0.125 | doramapimod 0.094 | bafetinib -0.35

IGF2BP2 isoform 6 (UniProt Q9Y6M1)
inactive: [4] 0.289 | lapatinib 0.084

ICMT (UniProt O60725)
inactive: Tubastatin A -0.037 | defactinib -0.232 | [2] 0.128 | encorafenib 0.031 | [3] 0.029 | alisertib -0.05 | gefitinib -0.15 | pictilisib 0 | crizotinib -0.078 | duvelisib 0.004 | tozasertib 0.07 | doramapimod 0.061 | bafetinib -0.01

INPP5D (UniProt Q92835)
inactive: [1] 0.139

INIP (UniProt Q9NRY2)
inactive: Tubastatin A 0.137 | [1] -0.119 | defactinib 0.208 | [2] 0.095 | [4] 0.13 | lapatinib 0.094 | duvelisib 0.287

IFT172 (UniProt Q9UG01)
inactive: Tubastatin A -0.244 | [1] 0.243 | defactinib 0.05 | [2] -0.037 | alisertib 0.034 | gefitinib 0.132 | duvelisib -0.1

ILF3 (UniProt K7EKJ9)
inactive: [4] 0.041 | lapatinib 0.141 | crizotinib 0.082 | doramapimod 0.054

IFT22 (UniProt Q9H7X7)
inactive: Tubastatin A -0.163 | [1] -0.031 | [2] 0.088 | encorafenib -0.15 | [3] 0.214 | pictilisib -0.195 | duvelisib 0.024 | tozasertib -0.201 | bafetinib -0.144

IFT88 (UniProt Q13099)
inactive: Tubastatin A -0.372 | alisertib 0.039 | gefitinib -0.07 | crizotinib -0.031 | doramapimod 0.448

ING2 (UniProt Q9H160)
inactive: encorafenib 0.004 | [3] -0.128 | crizotinib 0.006 | tozasertib -0.124 | doramapimod -0.025
